These are yes or no findings as the source states them, for the method shown. In cells and extracts the contact can be indirect. Binding calls can cover weak binding; strength is not graded here.
Experiments:
[1] = target: T1, Orc2 (endogenous, S2 cells) (Drosophila (endogenous in S2 cells)) (UniProt Q24168); assay: co-IP; extracts of transfected S2 cells, uninduced or copper sulfate induced; endogenous partner precipitated with anti-Orc2 or anti-dE2F1 serum (1:100) and protein G beads, anti-V5 immunoblot; IP buffer 150 mM NaCl, 50 mM Tris pH 8, 2.5 mM EDTA, 2.5 mM EGTA, 1% NP-40; on ice one hour
T1 sequence: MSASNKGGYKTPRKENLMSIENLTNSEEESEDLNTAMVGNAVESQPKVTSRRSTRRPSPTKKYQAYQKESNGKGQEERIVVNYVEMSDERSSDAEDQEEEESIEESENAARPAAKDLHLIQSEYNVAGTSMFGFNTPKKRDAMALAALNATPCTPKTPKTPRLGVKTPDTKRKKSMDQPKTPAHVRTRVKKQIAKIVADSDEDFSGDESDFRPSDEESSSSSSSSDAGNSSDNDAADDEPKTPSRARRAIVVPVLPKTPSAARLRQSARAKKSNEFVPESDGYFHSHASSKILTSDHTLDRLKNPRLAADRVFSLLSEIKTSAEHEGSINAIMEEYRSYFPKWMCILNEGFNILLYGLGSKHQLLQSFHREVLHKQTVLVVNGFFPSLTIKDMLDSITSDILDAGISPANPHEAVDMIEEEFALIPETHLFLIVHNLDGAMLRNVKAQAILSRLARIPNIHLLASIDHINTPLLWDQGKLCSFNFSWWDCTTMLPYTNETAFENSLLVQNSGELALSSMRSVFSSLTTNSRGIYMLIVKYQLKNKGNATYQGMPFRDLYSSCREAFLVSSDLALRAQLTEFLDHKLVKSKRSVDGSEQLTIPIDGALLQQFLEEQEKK

[2] = target: T1, Orc2 (endogenous, S2 cells) (Drosophila (endogenous in S2 cells)); assay: co-IP; as for the other S2 extracts, but extracts precleared with rabbit serum and protein G beads, ethidium bromide included to eliminate DNA-mediated interactions, anti-V5 blot at 1:1000; IP with anti-HA (negative control), anti-dE2F1 and anti-Orc2

Substance	binding [1]	binding [2]
Rbf1(1–150)-V5 (Drosophila) (domain or fragment)	no binding	
Rbf1(345–797)-V5 (Drosophila) (domain or fragment)	no binding	
Rbf1(1–345)-V5 (Drosophila) (domain or fragment)	binds	
Rbf1(345–845)-V5 (Drosophila) (domain or fragment)		binds
Rbf1(1–330)-V5 (Drosophila) (domain or fragment)	binds	
